The values are deposited in ChEMBL (CHEMBL3988442, “University of Dundee, Small-Polar-MMV Screening Library” (2021)).

Values are the deposited “Percent Effect”, in %. The controls that fix the scale are not given in the record; negative values are as filed. Compounds were drawn at random from those tested, without regard to their results.

Mtb glucose medium: 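Whole-cell growth test on Mycobacterium tuberculosis, read after 3 days in glucose-containing 7H9 medium; the read-out is not stated. Tested at 500 µM. Direction is inferred from retests: higher values go with more growth inhibition. Size under these conditions: about 18,000 compounds, about 1,400 of them at 50% or above in at least one test.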
Mtb cholesterol medium: 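Whole-cell growth test on Mycobacterium tuberculosis, read after 4 days in a medium based on cholesterol and the lipid DPPC; the read-out is not stated. Tested at 500 µM. Direction is inferred from retests: higher values go with more growth inhibition. About 18,000 compounds were tested under these conditions; 5% (about 900) showed 50% or more at least once.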

{"smiles": "CCc1nc(CN(C)C(=O)c2cccnc2O)cs1", "Mtb glucose medium": 15.13, "Mtb cholesterol medium": 0.3997}
{"smiles": "Cn1cc(CC2CNC2)cn1", "Mtb glucose medium": 3.302, "Mtb cholesterol medium": -4.941}
{"smiles": "O=C(CCc1ccccc1)NCCNc1cnccn1", "Mtb glucose medium": 22.29, "Mtb cholesterol medium": 5.408}
{"smiles": "OCCC1COc2ccc(F)cc2N1", "stereo": "stereo not shown", "Mtb glucose medium": 51.56, "Mtb cholesterol medium": 8.174}
{"smiles": "O=C(CCc1ccc2[nH]ccc2c1)N1CCC[C@H]1CO", "Mtb glucose medium": -1.571, "Mtb cholesterol medium": -6.022}
{"smiles": "COc1ccccc1C(=O)Nc1c(C)n[nH]c1C", "Mtb glucose medium": 0.2707, "Mtb cholesterol medium": -5.528}
{"smiles": "Cc1occc1C(=O)NCCCN1CCCC1", "Mtb glucose medium": 36.59, "Mtb cholesterol medium": 14.17}
{"smiles": "CCn1ccc(CN2CCOC(CCOC)C2)n1", "stereo": "stereo not shown", "Mtb glucose medium": 11.5, "Mtb cholesterol medium": 10.31}
{"smiles": "C[C@@H]1CN(Cc2ccccc2)C[C@@H](C)C1=O", "Mtb glucose medium": 7.801, "Mtb cholesterol medium": 14.84}
{"smiles": "Cc1cccnc1NC1=NS(=O)(=O)c2ccccc21", "Mtb glucose medium": -1.223, "Mtb cholesterol medium": -0.7363}
{"smiles": "CC(C(N)=O)S(=O)(=O)c1ccc2ccccc2c1", "stereo": "stereo not shown", "Mtb glucose medium": 22.46, "Mtb cholesterol medium": -4.667}
{"smiles": "CC(N)c1ccccc1NS(C)(=O)=O", "stereo": "stereo not shown", "Mtb glucose medium": 3.139, "Mtb cholesterol medium": -1.836}
{"smiles": "CCNC(=O)C(C)NC(=O)N1CCc2ccc(Cl)cc21", "stereo": "stereo not shown", "Mtb glucose medium": 5.433, "Mtb cholesterol medium": 5.916}
{"smiles": "O=C(CN1CCCC1=O)NCCc1cccnc1", "Mtb glucose medium": -15.57, "Mtb cholesterol medium": -22.4}
{"smiles": "CC(C)c1nnc[nH]1", "Mtb glucose medium": -6.361, "Mtb cholesterol medium": -8.375}
{"smiles": "COc1c(CNC(=O)c2cc(Br)c[nH]2)c(C)nn1C", "Mtb glucose medium": 24.66, "Mtb cholesterol medium": 2.309}
{"smiles": "O=C(CC1COCCN1)N1CCC(c2ncc[nH]2)CC1", "stereo": "stereo not shown", "Mtb glucose medium": -7.068, "Mtb cholesterol medium": -11.61}
{"smiles": "COC(C)CCC(=O)Nc1cnccn1", "stereo": "stereo not shown", "Mtb glucose medium": -0.8325, "Mtb cholesterol medium": -7.255}
{"smiles": "Cc1cc(N2C[C@@H](CO)[C@H](CO)C2)n2nc(C)cc2n1", "Mtb glucose medium": 5.08, "Mtb cholesterol medium": -2.012}
{"smiles": "Oc1cccc(CN2CCN(CC3CCOC3)CC2)c1", "stereo": "stereo not shown", "Mtb glucose medium": 16.4, "Mtb cholesterol medium": 12.49}
{"smiles": "CC1CCN(CC(=O)N(C)CCc2cnn(C)c2)C1=O", "stereo": "stereo not shown", "Mtb glucose medium": -14.82, "Mtb cholesterol medium": -10.94}
{"smiles": "CCOCCNC(=O)Nc1ccncc1C", "Mtb glucose medium": 5.325, "Mtb cholesterol medium": 21.09}
{"smiles": "CSCC1CCCN1Cc1cccc(N)n1", "stereo": "stereo not shown", "Mtb glucose medium": 20.16, "Mtb cholesterol medium": 1.243}
{"smiles": "O=C(C1CCNCC1)N1CCNCC1", "Mtb glucose medium": -3.708, "Mtb cholesterol medium": -6.774}
{"smiles": "CC(c1ccncc1)N(C)CCC(=O)N1CCOCC1", "stereo": "stereo not shown", "Mtb glucose medium": -2.713, "Mtb cholesterol medium": 6.02}
{"smiles": "CN(C)c1ncccc1C(=O)Nc1ccc(C#N)cn1", "Mtb glucose medium": -1.148, "Mtb cholesterol medium": -2.761}
{"smiles": "CC1CCCN(Cc2cc(=O)n(C)c(=O)n2C)C1", "stereo": "stereo not shown", "Mtb glucose medium": 10.02, "Mtb cholesterol medium": 4.568}
{"smiles": "CC(C)(CC1CCCNC1)C(N)=O", "stereo": "stereo not shown", "Mtb glucose medium": -1.961, "Mtb cholesterol medium": -13.44}
{"smiles": "CCN(Cc1c(F)cccc1F)C(=O)CN", "Mtb glucose medium": 18.5, "Mtb cholesterol medium": 9.451}
{"smiles": "O=C(CO)NC(Cc1ccccn1)c1ccc(Br)cc1", "stereo": "stereo not shown", "Mtb glucose medium": -6.629, "Mtb cholesterol medium": 15.33}
{"smiles": "OCCC1CNCCN1Cc1cccs1", "stereo": "stereo not shown", "Mtb glucose medium": 3.95, "Mtb cholesterol medium": 13.15}
{"smiles": "CC1CC(=O)N(C)c2ccccc2N1C", "stereo": "stereo not shown", "Mtb glucose medium": 12.13, "Mtb cholesterol medium": -1.857}
{"smiles": "CCNC(=O)NCC(C)Oc1cccc(OC)c1", "stereo": "stereo not shown", "Mtb glucose medium": 72.28, "Mtb cholesterol medium": 72.63}
{"smiles": "Nc1ncccc1C(=O)NCCC1=CCCCC1", "Mtb glucose medium": 72.05, "Mtb cholesterol medium": 62.4}
{"smiles": "CCC1CN(Cc2cccnc2N)CCN1C(C)C", "stereo": "stereo not shown", "Mtb glucose medium": 26.86, "Mtb cholesterol medium": 18.94}

The first 2 entries again:

CCc1nc(CN(C)C(=O)c2cccnc2O)cs1 read Mtb glucose medium: 15.13%; Mtb cholesterol medium: 0.3997%.
Cn1cc(CC2CNC2)cn1 read Mtb glucose medium: 3.302%; Mtb cholesterol medium: -4.941%.